Taken from: PubChem BioAssay AID686943 (Drosophila RNAi Screening Center, 2013)
Purpose: 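Search across the genome for regulators of signalling from receptor tyrosine kinase to ERK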 (primary screen). Cell system: Drosophila S2R+ haemocyte-like cells expressing YFP-tagged ERK (Rolled). Reagent: long dsRNA against Drosophila genes. Conditions: insulin stimulation versus unstimulated cells; dose and duration not given. Detection: 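Per-plate z-scores of phospho-ERK immunostaining normalised to YFP-tagged ERK, measured with and without insulin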. Reading the numbers: replicate 1, z-score of dpERK with insulin and replicate 2, z-score of dpERK with insulin: higher = more active ERK per ERK-YFP after insulin.
The deposit covers about 23,000 reagents; this is an unselected part of those with a known target gene and a result. 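Extra replicates exist only for a retested subset of genes; insulin dose and duration not given; both raised and lowered dpERK matter.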 Reagents against one gene are numbered here. Not all columns of the deposit are shown. Not given: the amount of reagent, the time to read-out.

{"gene knocked down":"CG4301","dsRNA no.":1,"replicate 1, z-score of dpERK with insulin":-0.75,"replicate 2, z-score of dpERK with insulin":-0.36}
{"gene knocked down":"upd3","dsRNA no.":1,"replicate 1, z-score of dpERK with insulin":0.78,"replicate 2, z-score of dpERK with insulin":0.77}
{"gene knocked down":"upd3","dsRNA no.":2,"replicate 1, z-score of dpERK with insulin":1.01,"replicate 2, z-score of dpERK with insulin":0.71}
{"gene knocked down":"upd3","dsRNA no.":3,"replicate 1, z-score of dpERK with insulin":0.82,"replicate 2, z-score of dpERK with insulin":0.67}
{"gene knocked down":"St4","dsRNA no.":1,"replicate 1, z-score of dpERK with insulin":0.83,"replicate 2, z-score of dpERK with insulin":0.28}
{"gene knocked down":"CG17010","dsRNA no.":1,"replicate 1, z-score of dpERK with insulin":-0.13,"replicate 2, z-score of dpERK with insulin":0.29}
{"gene knocked down":"CG34408","dsRNA no.":1,"replicate 1, z-score of dpERK with insulin":0.8,"replicate 2, z-score of dpERK with insulin":0.52}
{"gene knocked down":"CG34408","dsRNA no.":2,"replicate 1, z-score of dpERK with insulin":-0.99,"replicate 2, z-score of dpERK with insulin":-1.13}
{"gene knocked down":"CG1416","dsRNA no.":1,"replicate 1, z-score of dpERK with insulin":0.36,"replicate 2, z-score of dpERK with insulin":-0.2}
{"gene knocked down":"CG8312","dsRNA no.":1,"replicate 1, z-score of dpERK with insulin":1.14,"replicate 2, z-score of dpERK with insulin":0.24}
{"gene knocked down":"CG30010","dsRNA no.":1,"replicate 1, z-score of dpERK with insulin":1.31,"replicate 2, z-score of dpERK with insulin":0.33}
{"gene knocked down":"CG30274","dsRNA no.":1,"replicate 1, z-score of dpERK with insulin":-0.43,"replicate 2, z-score of dpERK with insulin":0.07}
{"gene knocked down":"Act79B","dsRNA no.":1,"replicate 1, z-score of dpERK with insulin":-3.29,"replicate 2, z-score of dpERK with insulin":-2.62}
{"gene knocked down":"CG17271","dsRNA no.":1,"replicate 1, z-score of dpERK with insulin":0.27,"replicate 2, z-score of dpERK with insulin":-0.19}
{"gene knocked down":"CG17271","dsRNA no.":2,"replicate 1, z-score of dpERK with insulin":-1.35,"replicate 2, z-score of dpERK with insulin":-1.6}
{"gene knocked down":"CG15617","dsRNA no.":1,"replicate 1, z-score of dpERK with insulin":0.42,"replicate 2, z-score of dpERK with insulin":0.45}
{"gene knocked down":"CG17780","dsRNA no.":1,"replicate 1, z-score of dpERK with insulin":-0.74,"replicate 2, z-score of dpERK with insulin":-0.04}
{"gene knocked down":"CG42323","dsRNA no.":1,"replicate 1, z-score of dpERK with insulin":0.3,"replicate 2, z-score of dpERK with insulin":-0.1}
{"gene knocked down":"CG42323","dsRNA no.":2,"replicate 1, z-score of dpERK with insulin":0.22,"replicate 2, z-score of dpERK with insulin":0.25}
{"gene knocked down":"und","dsRNA no.":1,"replicate 1, z-score of dpERK with insulin":-0.37,"replicate 2, z-score of dpERK with insulin":-1.62}
{"gene knocked down":"ZnT49B","dsRNA no.":1,"replicate 1, z-score of dpERK with insulin":0.91,"replicate 2, z-score of dpERK with insulin":1.22}
